Results published in PubChem BioAssay AID2549 (National Center for Advancing Translational Sciences (NCATS), 2010).
Screen size: about 240,000 compounds; about 1,300 (0.54%) were called active. Inconclusive means that the source gave no clear call. Such entries were picked first, then a sample of the others. The call rests on the fitted dose curve; in most records, active means well fitted inhibition curve with a large enough effect; inconclusive means small, poorly fitted or top-dose-only effect; inactive means flat fitted curve, though single readings scatter. Where the call is inconclusive, the potency comes from a doubtful curve fit. Where a structure was tested more than once in an assay, its records may differ in their call.

Protein sequences, listed by entry. Tags and fused reporters are not part of them. Lines headed by an entry give the natural chain unless they say otherwise; changes in a name come on top.
UniProt P46063: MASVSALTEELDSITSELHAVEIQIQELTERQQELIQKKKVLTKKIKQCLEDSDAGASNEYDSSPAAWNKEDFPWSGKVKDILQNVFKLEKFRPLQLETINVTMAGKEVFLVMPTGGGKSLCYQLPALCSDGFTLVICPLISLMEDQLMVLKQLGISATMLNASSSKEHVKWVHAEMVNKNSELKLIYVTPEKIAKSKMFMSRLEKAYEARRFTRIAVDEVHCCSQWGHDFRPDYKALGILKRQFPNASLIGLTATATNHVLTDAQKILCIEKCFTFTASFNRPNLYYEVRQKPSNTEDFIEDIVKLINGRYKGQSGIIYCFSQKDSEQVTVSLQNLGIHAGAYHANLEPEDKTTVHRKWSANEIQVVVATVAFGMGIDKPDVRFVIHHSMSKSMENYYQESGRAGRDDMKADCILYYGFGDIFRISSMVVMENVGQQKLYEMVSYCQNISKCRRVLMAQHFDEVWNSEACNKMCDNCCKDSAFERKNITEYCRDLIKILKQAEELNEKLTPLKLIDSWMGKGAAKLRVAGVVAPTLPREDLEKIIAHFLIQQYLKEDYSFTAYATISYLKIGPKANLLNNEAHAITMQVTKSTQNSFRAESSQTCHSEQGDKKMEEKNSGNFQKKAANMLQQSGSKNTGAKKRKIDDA

molecular target: ATP-dependent DNA helicase Q1 (Homo sapiens) (UniProt P46063); assay: qHTS Assay for Inhibitors of RecQ-Like Dna Helicase 1 (RECQ1); conditions: RECQ1 DNA unwinding, red fluorescence kinetic read; activity, negative = inhibition: at 57.3 µM (top of the series); series mostly up to 57.3 µM; further: nearly all actives have a fitted effect of over 30% in size;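 on activity, negative = inhibition: plate controls were vehicle for no effect and no enzyme for full effect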
Method in brief: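 RECQ1T1 50 nM; forked duplex (20 bp + 30-nt ss tails) 200 nM, ATP 2 mM final; pH 8.0, 2 mM MgCl2, 2.5 ug/ml poly(dI-dC); 15 min compound preincubation; discontinuous kinetic read over 2 h at RT.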
Potency means the concentration at half of the fitted maximal effect.

Compound	Potency	activity, negative = inhibition	outcome
Cc1cccc2c1nc(-c1ccccc1)n1nnnc21	inconclusive: 5.62 µM [inhibitor, partial curve, poor fit]		
COc1cccc(OC)c1-c1nn2c(-c3cc(-c4ccccc4)n[nH]3)nnc2s1	active: 11.2 µM		
O=C(Cn1c(=O)n(Cc2ccco2)c(=O)c2c3c(sc21)CCCCC3)Nc1ccccc1	active: 12.6 µM		
Cc1ccc(NC(=O)CN2C(=O)S/C(=C\c3cc(C)n(-c4ccc(C(=O)O)cc4)c3C)C2=O)cc1	inconclusive: 35.5 µM [inhibitor, single point]		
O=C(NCCc1ccccc1)C(=O)NCC1OCCN1S(=O)(=O)c1ccccc1 (configuration not stated)	inconclusive: 35.5 µM [inhibitor, single point]		
Cc1cc(C(=O)N/N=C/c2ccc(O)c([N+](=O)[O-])c2)c(C)n1-c1ccc(F)cc1	inconclusive: 39.8 µM [inhibitor, single point]		
COc1ccccc1-c1csc(NC(=O)c2cc(-c3cccs3)nc3ccccc23)n1	inconclusive: 39.8 µM [inhibitor, single point]		
CCCCC(=O)NC1(C(F)(F)F)C(=O)N(Cc2ccco2)C(C)=C1C(=O)OC (configuration not stated)		inactive: -3.3%	
O=C(/C=C/c1ccc(Br)cc1)c1ccc(NC(=O)c2ccco2)cc1	active: 3.98 µM		
Cc1ccc(C(=O)Nc2nc(-c3cccnc3)cs2)o1	inconclusive: 0.141 µM [inhibitor, full curve, poor fit]		
CCOc1cccc(C2C(C(=O)c3ccco3)=C(O)C(=O)N2Cc2ccncc2)c1 (configuration not stated)	inconclusive: 3.55 µM [inhibitor, partial curve, poor fit]		
Cc1ccc(-c2c3c([nH]c(=S)c2C#N)CCCC3)o1	inconclusive: 35.5 µM [inhibitor, single point]		
CCCCCCCC/C=C\CCCCCCCC(=O)N[C@@H](CO)Cc1ccc(O)cc1	inconclusive: 7.08 µM [inhibitor, full curve]		
Cc1cc(/C=C2\SC(=S)NC2=O)c(C)n1C	active: 0.316 µM		
Cc1ccc(SCc2c(C(=O)N/N=C/c3ccccc3)nnn2-c2nonc2N)cc1	inconclusive: 25.1 µM [inhibitor, partial curve, poor fit]		
Cc1cccc(-n2c(SCC(=O)O)nc3sc4c(c3c2=O)CCC4)c1	inconclusive: 0.891 µM [inhibitor, single point]		
Cc1cc(NC(=O)CSc2cc(Cl)ccc2Cl)n(-c2ccccc2)n1		inactive: -9.32%	
O=S(=O)(c1ccc(Br)s1)N1CCCCC1	inconclusive: 4.47 µM [inhibitor, partial curve]		
O=c1c2c3c(sc2[nH]c(=S)n1Cc1ccco1)CCC3	active: 12.6 µM		
O=C(N/N=C/c1cccc(NC(=O)c2ccc(Cl)cc2)c1)c1ccc(O)cc1	active: 17.8 µM		
O=C(Nc1ccc(Br)cc1)c1ccc(F)c(S(=O)(=O)NCc2cccs2)c1	inconclusive: 39.8 µM [inhibitor, single point]		

Compound	Potency	activity, negative = inhibition	outcome
O=C(Nc1nccs1)c1ccc(-c2ccc([N+](=O)[O-])cc2)o1	inconclusive: 6.31 µM [inhibitor, single point]		
COc1ccc(C(C)C)cc1S(=O)(=O)N1CCN(c2ccccc2)CC1	inconclusive: 35.5 µM [inhibitor, single point]		
N=C(N)c1ccccc1	active: 14.1 µM		
COc1ccc(NC(=O)CSc2nc(NS(=O)(=O)c3ccc(C)cc3)cc(=O)[nH]2)cc1	active: 35.5 µM		
CC1(OC(=O)c2ccc(Cl)nc2)C(=O)C=C2C=C3CCCN3C=C2C1=O (configuration not stated)	inconclusive: 35.5 µM [inhibitor, single point]		
CC(=O)Nc1cc(OC(C)=O)c2nonc2c1OC(C)=O	active: 5.01 µM		
CCN(CC)CC#CCOC(=O)C(O)(c1ccccc1)C1CCCCC1 (configuration not stated)	inconclusive: 39.8 µM [inhibitor, single point]		
COc1ccccc1CNc1nc(-c2ccccc2OC)nc2ccccc12		inactive: 0.662%	
O=C(O)CSc1nnc(Cn2c(=O)sc3ccccc32)n1-c1cccc(Cl)c1		inactive: 7.78%	
Oc1ccc(CNc2ccc(F)cc2)c2cccnc12	inconclusive: 0.708 µM [inhibitor, single point]		
CN(C)C(=O)COc1ccc2cc(-c3ccccc3)c(=O)oc2c1	inconclusive: 0.447 µM [inhibitor, partial curve, poor fit]		
O=C(Nc1ccc2oc(=O)ccc2c1)c1ccc(-c2cccc([N+](=O)[O-])c2)o1		inactive: -4.35%	
Cc1nc2ccccn2c1C(=O)N/N=C/c1ccc([N+](=O)[O-])o1	inconclusive: 25.1 µM [inhibitor, partial curve, poor fit]		
Cn1cccc1C(=O)N1CCC2(CC1)CCN(C(c1ccccc1)c1ccccc1)CC2	inconclusive: 39.8 µM [inhibitor, single point]		
Cc1cc2cc(CNC(=O)c3ccc(S(=O)(=O)N4CCCC4)cc3)ccc2n1C	inconclusive: 35.5 µM [inhibitor, single point]		
O=C(/C=C/c1ccco1)Nc1nc(-c2ccccc2)cs1			inactive
COC(=O)CCCC1=CC2=CC(=O)C(C)(OC(=O)C3CCCC3)C(=O)C2=CO1 (configuration not stated)	inconclusive: 39.8 µM [inhibitor, single point]		
CCOc1cc(/C=C2\SC(=S)N(NC(=O)c3cccnc3)C2=O)ccc1O	active: 17.8 µM		
CC1(C)Cc2c(c(-c3ccco3)nc3sc4c(NCCO)ncnc4c23)CO1			inactive
O=C(/C=C/c1ccccc1)c1ccccc1	inconclusive: 4.47 µM [inhibitor, partial curve, poor fit]		
COc1ccccc1-n1c(SCC(=O)Nc2cccc3ccccc23)nc(O)cc1=O	inconclusive: 39.8 µM [inhibitor, single point]		

Compound	Potency	activity, negative = inhibition	outcome
COc1ccc(NC(=O)c2sc3nc(-c4cccnc4)ccc3c2N)cc1OC			inactive
N/C(=N\OC(=O)Cc1ccc([N+](=O)[O-])cc1)c1cccc(Br)c1	inconclusive: 31.6 µM [inhibitor, single point]		
COc1ccc2[nH]c3c(C)c4ccncc4c(C)c3c2c1	active: 22.4 µM		
Cc1ccc(/C=C2\SC(=S)N(Cc3ccccc3)C2=O)o1	active: 17.8 µM		
C=CCn1c(C)cc(C(=O)Cn2ncc(Cl)c(Cl)c2=O)c1C	active: 10 µM		
COc1ccc(C(CC(=O)N2CCN(c3ccccc3)CC2)c2c(OC)cc(OC)c3c(-c4ccccc4)cc(=O)oc23)cc1 (configuration not stated)	inconclusive: 35.5 µM [inhibitor, single point]		
Cc1c(C(N)=O)c(-c2ccccc2)nn1-c1ccccc1		inactive: 3%	
CC(C)(C)N(NC(=O)Nc1ccc(F)cc1)C(=O)c1ccccc1	inconclusive: 3.55 µM [inhibitor, partial curve]		
O=Nc1c(-c2c(O)[nH]c3ccccc23)[nH]c2ccccc12	inconclusive: 31.6 µM [inhibitor, single point]		
Fc1ccc(Nc2ccc3ccccc3n2)c(F)c1		inactive: -19.8%	
CCCCC1=CC2=C(c3ccco3)C(=O)C(C)(OC(=O)c3ccc(OC)cc3)C(=O)C2=CN1Cc1ccccc1 (configuration not stated)	inconclusive: 35.5 µM [inhibitor, single point]		
CSCC[C@H](NC(=O)[C@H](CC(C)C)NC(=O)[C@H](Cc1c[nH]c2ccccc12)NC(=O)[C@H](CCC(N)=O)NC(=O)[C@@H](NC(=O)[C@H](Cc1ccccc1)NC(=O)[C@H](CC(=O)O)NC(=O)[C@H](CCC(N)=O)NC(=O)[C@H](C)NC(=O)[C@H](CCCNC(=N)N)NC(=O)[C@H](CCCNC(=N)N)NC(=O)[C@H](CO)NC(=O)[C@H](CC(=O)O)NC(=O)[C@H](CC(C)C)NC(=O)[C@H](Cc1ccc(O)cc1)NC(=O)[C@H](CCCCN)NC(=O)[C@H](CO)NC(=O)[C@H](Cc1ccc(O)cc1)NC(=O)[C@H](CC(=O)O)NC(=O)[C@H](CO)NC(=O)[C@@H](NC(=O)[C@H](Cc1ccccc1)NC(=O)[C@@H](NC(=O)CNC(=O)[C@H](CCC(N)=O)NC(=O)[C@H](CO)NC(=O)[C@@H](N)Cc1cnc[nH]1)[C@@H](C)O)[C@@H](C)O)C(C)C)C(=O)N[C@@H](CC(N)=O)C(=O)N[C@H](C(=O)O)[C@@H](C)O		inactive: -15.7%	
O=S(=O)(c1ccc2c(c1)OCCO2)N1CCC(c2nc3ccc(Cl)cc3[nH]2)CC1		inactive: 7.88%	
O=C1COc2ccc(-c3csc(=Nc4ccc(OC(F)F)cc4)n3CC3CCCO3)cc2N1 (configuration not stated)	inconclusive: 39.8 µM [inhibitor, partial curve]		
COc1cc(C2OCC3C(c4ccc(OC5OC(CO)C(O)C(O)C5O)c(OC)c4)OCC23)ccc1O (configuration not stated)	inconclusive: 39.8 µM [inhibitor, single point]		
CCCn1c(C)cc(-c2csc(N)n2)c1C	inconclusive: 39.8 µM [inhibitor, single point]		
CC(=O)c1cccc(S(=O)(=O)N2CCCC(c3nc(-c4ccc(C)o4)no3)C2)c1 (configuration not stated)	inconclusive: 22.4 µM [inhibitor, partial curve, poor fit]		
O=C(N/N=C/c1ccc(Br)o1)/C(=C/c1ccc([N+](=O)[O-])cc1)NC(=O)c1ccccc1	inconclusive: 39.8 µM [inhibitor, single point]		
O=C(NCc1ccco1)c1ccc([N+](=O)[O-])o1	inconclusive: 39.8 µM [inhibitor, single point]		
CCOc1ccc(C(=O)CC(Sc2ccc(C)cc2)C(=O)O)cc1 (configuration not stated)	inconclusive: 39.8 µM [inhibitor, single point]		

4 compounds drawn at random from those above:
Compound	Potency	activity, negative = inhibition	outcome
CC(C)(C)N(NC(=O)Nc1ccc(F)cc1)C(=O)c1ccccc1	inconclusive: 3.55 µM [inhibitor, partial curve]		
Cc1c(C(N)=O)c(-c2ccccc2)nn1-c1ccccc1		inactive: 3%	
O=Nc1c(-c2c(O)[nH]c3ccccc23)[nH]c2ccccc12	inconclusive: 31.6 µM [inhibitor, single point]		
CC(=O)c1cccc(S(=O)(=O)N2CCCC(c3nc(-c4ccc(C)o4)no3)C2)c1 (configuration not stated)	inconclusive: 22.4 µM [inhibitor, partial curve, poor fit]		
